# Results of single-concentration screens

Source: ChEMBL document CHEMBL3988442, “University of Dundee, Small-Polar-MMV Screening Library” (2021).

T. brucei: 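Whole-parasite assay of Trypanosoma brucei over 72 hours; the read-out is not stated. Compounds at 30 µM. Higher reads as stronger inhibition (inferred: compounds with an IC50 in retests scored well above the rest). Values scatter widely below zero; nearly all retest evidence comes from the higher of the two concentrations used. Of about 64,000 compounds tested this way, about 940 (1.5%) reached 50% or more in at least one test.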
Toxoplasma: 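Assay of Toxoplasma gondii numbers, read through their beta-galactosidase reporter with a colour substrate. Concentration: 10 µM. The record gives no direction; the compounds picked for IC50 retests had high values, so higher reads as fewer parasites. Of about 67,000 compounds tested this way, about 260 (0.38%) reached 50% or more in at least one test.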

Results are given as percent effect.
How 0% and 100% were set is not recorded. Most values in the screen are low, and negative values occur.
The compounds are a random part of those screened.
A dash means the value is not listed here; it may have been measured.

structure,T. brucei,Toxoplasma
Cn1cc(N2CCC3(CCCN(Cc4ccoc4)C3)C2=O)cn1 (configuration not stated),-0.7369,-48.53
CS(=O)(=O)NCCCNC(=O)c1cccnc1O,1.57,3.165
c1cncc(C(Cn2cnnc2)N2CCOCC2)c1 (configuration not stated),-0.4686,-0.7317
Cc1scc(C(=O)N2CCC3(CC(=O)NC3=O)C2)c1-c1ccccc1 (configuration not stated),-3.289,-0.1154
CN(C)c1ccccc1C(=O)N1CCOC2(CNCCOC2)C1 (configuration not stated),-2.288,13.14
COc1ccc(-c2cc(C3CCNCC3)nc(C)n2)cc1.Cl,0.4357,22.75
CN(C)CCN1CC(C(=O)NCc2cccc(-n3cccn3)c2)CC1=O (configuration not stated),-70.21,5.13
O=C(CC1CCCC1)NCCNCc1cccc2c1OCCO2,2.169,8.913
Cc1n[nH]c(C)c1NC(=O)CN1CCn2c(nnc2C(C)C)C1,5.679,1.359
N#Cc1c(SCCN2CCCCCC2)sc2c(O)cc(O)nc12,-26.74,1.778
COc1ccc(C(=O)NCCCC2(C3OCCO3)CCOCC2)cc1,-22.98,4.615
NC(=O)CCn1cc(CNCCCc2ccccc2O)c2ccccc21,-6.699,-20.95
COCCN1CCOCC12CCN(c1nccs1)CC2.O=C(O)C(F)(F)F,-30.71,-13.75
O=C(CCC(=O)N1CCC(Cc2ccc(CO)cc2)C1)c1ccccc1 (configuration not stated),-11.67,-6.002
CC(C)N(C)Cc1cnc2n1CCN(C(=O)Cc1ccsc1)C2.O=C(O)C(F)(F)F,-22.47,-18.18
[H][C@@]12OCCN(C(=O)c3ccc(F)c(OC)c3)[C@@]1([H])CC[C@H]2OCC1CC1,-72.9,5.124
CSC(C)C(=O)N1CCCN(Cc2cscn2)CC1 (configuration not stated),-36.9,-4.658
CNc1ncc(C(=O)N2CCOC(C(=O)Nc3ccccc3)C2)cn1 (configuration not stated),-12.43,-26.41
O=C(CCc1cc2n(n1)CCN(Cc1ccncc1)C2)N1CCCC1,-53.26,18.44
O=C(O)C(F)(F)F.[H][C@@]12C[C@H](C)O[C@@]1([H])CCN(S(=O)(=O)c1c(C)nn(C)c1C)C2,5.348,-2.7
CC(C)CCNC(=O)c1c(-n2cnnn2)sc2c1CCCC2,-58.98,24.36
CN1CCN(c2ccc(NC(=O)c3cccs3)c(C(F)(F)F)c2)CC1,-50,10.98
O=C(C1CCOCC1)N1CCOC(CC2CCCCC2)C1 (configuration not stated),0.1227,7.529
CN(C)CCN1CCN(C)c2nc(-c3ccccc3)ncc2C1=O,17.36,-9.797
CO[C@H]1CCN(C2CCOCC2)C[C@@H]1Cc1ccccc1.O=C(O)C(F)(F)F,-24.88,-39.63
[H][C@]12CN(CCCC(=O)c3ccccc3)CC[C@@]1(O)CCN(S(C)(=O)=O)C2,2.19,0.7497
CCn1cc(C(=O)NCCc2nc(-c3ccc(C)cc3)n[nH]2)c(C)n1,4.601,-8.732
CCn1c(N)nc2cc(C(=O)N3CCCOCC3)cnc21,-25.35,2.887
O=C(C1CCOC1)N1CCC2(CCN(Cc3nccs3)CC2)CC1 (configuration not stated),55.49,-11.24
COC(=O)CN(Cc1ccccc1C)C(=O)CCCNC(=O)C1CC1,-65.93,-0.7203
CCCc1nnsc1C(=O)NCC(O)c1ccc(SC)cc1 (configuration not stated),-14.95,6.032
Clc1ccc(C2(CNC3=NCCN3)CC2)cc1.I,-21.01,-8.365
N#Cc1cccnc1NCCNC(=O)N1CCCSCC1,3.443,3.462
O=C(c1cccc2cccnc12)N1CC[C@@]2(CCCO2)[C@@H](O)C1,19.29,18.59
O=C(c1ccc(-c2ccc(O)nc2)s1)N1CCSCC1,-17.78,61.48
COCCN1CCCC(c2ncc(C(=O)N(C)C)c(C)n2)C1 (configuration not stated),-,17.25
CN(Cc1ccccc1)c1ncccc1CNC1CCC1,-33.78,-
O=C(c1ncn2c1CNS(=O)(=O)c1ccccc1-2)N1CCCCCC1,-,-47.85
[H][C@@]12CCN(C(=O)c3cscn3)C[C@@]1([H])O[C@@H](c1nnc(C3CC3)o1)C2,-43.27,3.616
O=S(=O)(c1c(F)cccc1F)N1CCCC1c1nnc2n1CCCCC2 (configuration not stated),-41.94,7.344
CC(C1CC1)N(C)C(=O)c1cnc(-c2ccc3c(c2)OCO3)s1 (configuration not stated),-44.7,1.752
O=C(NCCc1cc2nc(-c3ccncc3)ccn2n1)C1CC1,1.755,0.1324
CCc1nc(CC(=O)Nc2cnn(CC3CCCO3)c2)cs1 (configuration not stated),-5.006,-3.808
COCCN(Cc1nc2c(cnn2C)c(=O)[nH]1)C(C)COC (configuration not stated),7.141,-11.27
Cc1cccn2cc(CN3CCC(N4CCN(C)C4=O)CC3)nc12,-90.43,-22.81
CN(Cc1cccc2ncccc12)C(=O)CCC(F)(F)F,-63.58,6.126
CC[C@H](C)[C@@H](CO)NC(C)Cc1ccccc1F (some centres not stated),-14.85,18.58
CNC(=O)c1cccc(NC(=O)Cn2nc(-c3cccs3)oc2=O)c1,-12.36,2.262
[H][C@@]12CN(S(=O)(=O)c3ccccc3)C[C@]1([H])OCC(=O)N2CC1CCCCC1,6.021,1.776
CCOCC1CC2(CCN(C(=O)c3ccc4ccccc4n3)CC2)CO1.O=C(O)C(F)(F)F (configuration not stated),10.56,0.1784
Cc1nc(C)n(C2CCCN(C(=O)CCCn3ccnc3)C2)n1 (configuration not stated),-7.833,-0.9784
CC(C(=O)NCc1ccnc(N(C)C)c1)n1cccn1 (configuration not stated),12.96,-19.32
Fc1ccc(CNCC2Cn3nncc3CO2)cc1.O=C(O)C(F)(F)F (configuration not stated),-27.79,-1.435
[H][C@]12CCC(=O)N(C)[C@@]1(C)CCCCN2C(=O)CCc1cccnc1,-0.146,-4.117
Cc1ccc(CNC(=O)CN(C)CC2CCN(CCO)CC2)s1,-35.28,-2.846
COc1cccc(CC(=O)NC2CCCc3cn[nH]c32)c1 (configuration not stated),-25.33,-15.45
CCS(=O)(=O)N1CC(c2nc(-c3cccs3)no2)C1,-29.37,0.8965
CCOCCOc1ccccc1C(=O)N1C[C@H](C2CC2)[C@@H](N)C1,-,-12.54
CN(C)CCN(C)C(=O)Cn1cccc2cc(-c3ccc(F)cc3)nc1-2,-,3.359
N#Cc1ccc(N2CCCC3(CCN(c4cccnc4)CC3)C2)cc1.O=C(O)C(F)(F)F,65.08,-9.097
Cc1cccc(C2CCN(S(=O)(=O)c3cn(C)cn3)CC2)n1,-24.9,-34.11
CCc1ccc2nc(-c3cnn(C)c3)cc(C(=O)N3CCCC3)c2c1,-25.36,3.147
CSCCc1c(-c2ccccc2)ncn1CCNc1cccnc1,-42.63,0.5394
Cc1cnn(CC2CCCN2Cc2cc(=O)n3cc(C)ccc3n2)c1 (configuration not stated),-9.837,11.65
CN1CCCN(CC(CC(=O)Nc2ccc(Cl)cc2)C(=O)O)CC1 (configuration not stated),-2.107,-2.276
[H][C@@]12CN(C3CCN(CC)CC3)C[C@]1([H])N(CCc1cccc(Cl)c1)C(=O)O2,3.694,7.005
CCc1csc(C2CCCN(C(=O)c3ccccn3)C2)n1 (configuration not stated),-3.373,-3.687
COc1cccc2ccn(CC(=O)NCCC(C)C)c12,-5.78,18.21
O=C(c1cc(C2CCCCN2C(=O)C2CCC2)n[nH]1)N1CCOCC1 (configuration not stated),-21.09,-1.459
O=C(Cc1n[nH]c(-c2cncc(Br)c2)n1)NCc1ccccn1,-38.13,2.231
CCCn1nc2c(cc1=O)CN(CC(=O)Nc1ccncc1)CC2,0.8268,-2.558
Cc1[nH]c2ccccc2c1-c1ccnc(NCCN2CCOCC2)n1,-34.82,-5.812
Cc1nc2c(c(NCCN3CCOCC3)n1)CCN(C)C2,-17.12,7.096

For reference, 4 entries once more:

* O=C(CC1CCCC1)NCCNCc1cccc2c1OCCO2 : T. brucei: 2.169%; Toxoplasma: 8.913%
* CN(Cc1ccccc1)c1ncccc1CNC1CCC1 : T. brucei: -33.78%
* O=C(CCC(=O)N1CCC(Cc2ccc(CO)cc2)C1)c1ccccc1 (configuration not stated) : T. brucei: -11.67%; Toxoplasma: -6.002%
* CSCCc1c(-c2ccccc2)ncn1CCNc1cccnc1 : T. brucei: -42.63%; Toxoplasma: 0.5394%